Laboratory results from patent US20210206851A1.
No constants are given. Whether binding was seen depends on the method and setting. A result given as binding can be weak or reduced; the word gives no strength.

Legend:
[1] = biological target: endogenous cynomolgus monkey LAG-3 on SEB-stimulated cynomolgus monkey PBMCs (cynomolgus monkey); assay: FACS on SEB-stimulated cynomolgus monkey PBMCs, goat-anti human Fc-APC
[2] = biological target: endogenous cynomolgus monkey LAG-3 on SEB-stimulated cynomolgus monkey PBMCs (cynomolgus monkey); assay: flow cytometry; cynomolgus monkey PBMCs, donor Cyno9153462442, SEB 500 ng/mL or unstimulated; detected with goat anti-human Fc-APC; no isotype control shown
[3] = biological target: endogenous cynomolgus monkey LAG-3 on SEB-stimulated cynomolgus monkey PBMCs (cynomolgus monkey); assay: flow cytometry; cynomolgus monkey PBMCs, donor Cyno9238385617, SEB 500 ng/mL or unstimulated; detected with goat anti-human Fc-APC; no isotype control shown

binding [1]: binds
binding [2]: binds
binding [3]: binds
B1: hLAG-3 mAb 6 (1.1) (antibody, V domains shown)
VH: QVQLVQSGAEVKKPGASVKVSCKASGYTFTDYNMDWVRQAPGQGLEWMGDINPDNGVTIYNQKFEGRVTMTTDTSTSTAYMELRSLRSDDTAVYYCAREADYFYFDYWGQGTTLTVSS
VL: DIQMTQSPSSLSASVGDRVTITCRASQDVSSVVAWYQQKPGKAPKLLIYSASYRYTGVPSRFSGSGSGTDFTLTISSLQPEDFATYYCQQHYSTPWTFGGGTKLEIK
